The text below walks through data of US20230062712A1 (SILVERBACK THERAPEUTICS, published 2023).

Positions count from the first letter of the chain named. These are yes or no findings as the source states them, for the method shown. Some binding calls cover weakened binding; strength is not graded here.

The target of test [1] is T1, human asialoglycoprotein receptor 1 (ASGR1) on cells (human) (UniProt P07306).
T1 sequence (looked up): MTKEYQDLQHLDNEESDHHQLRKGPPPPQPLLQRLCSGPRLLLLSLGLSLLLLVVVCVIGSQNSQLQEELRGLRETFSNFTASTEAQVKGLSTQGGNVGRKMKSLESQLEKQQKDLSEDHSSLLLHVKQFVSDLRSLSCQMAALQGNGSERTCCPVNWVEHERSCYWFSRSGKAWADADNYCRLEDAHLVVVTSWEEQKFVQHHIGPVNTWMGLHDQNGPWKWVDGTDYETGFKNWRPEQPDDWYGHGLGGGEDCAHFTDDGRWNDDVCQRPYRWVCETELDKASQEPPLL
As to the kind of experiment: Guava flow cytometry screen on HepG2 cells. Background: A flow cytometer gives signals particle by particle.

The target in test [2] is T1, human asialoglycoprotein receptor 1 (ASGR1) on cells (human). Put plainly: flow cytometry on HepG2 cells, anti-human IgG PE secondary, MFI (Geo Mean).
Test [3] shares this target. Put plainly: flow cytometry on HepG2 cells.

B1: chL4L (antibody, human IgG1, kappa, V domains shown)
VH: DVQLQESGPGLVKPSQSLSLTCTVTGYSITSDYAWNWIRQFPGNKLEWMGYISYSGSTRYNPSLKSRISITRDTSKNQFFLQLNSVTTEDTATYYCARRYRYDEGYGMDYWGQGTSVTVSS
VL: DIQMTQSPASLSVFVGEIVTITCRASENIYSNLAWYQQKQGKSPQLLVYAATNLADGVPSRFTGSGSGTQFSLKINSLQSEDFGNYYCQHFWGTPPWTFGGGTKLEIKR
B1: in test [1], the binding result is reported as “binds”.

B2: hzH8K-1 (antibody, V domains shown)
VH: QVQLQESGPGLVKPSQTLSLTCTVSGGSISSDYAWNWIRQHPGKGLEWIGYRSYRGSTSYNPSLKSRVTISVDTSKNQFSLKLSSVTAADTAVYYCARRGYYGSSSHWYFDVWGQGTTVTVSS
VL: DIQMTQSPSSLSASVGDRVTITCRASENIYSYLAWYQQKPGKAPKLLIYNAKTLAEGVPSRFSGSGSGTDFTLTISSLQPEDFATYYCQHHYGTPLTFGGGTKVEIK
notes: IgG1 and kappa constant regions
On to B2, for which the binding result in test [2] and in test [3] was “binds” each time.

B3: hzH8K-10 (antibody, V domains shown)
VH: B2 VH with S71T, V72R
VL: B2 VL
Turning to B3, the binding entry in test [2] and in test [3] was “binds” in each case.

B4: hzL4L-7 (antibody, V domains shown)
VH: QVQLQESGPGLVKPSQTLSLTCTVSGYSISSDYAWNWIRQHPGKGLEWIGYISYSGSTRYNPSLKSRVTITRDTSKNQFSLKLSSVTAADTAVYYCARRYRYDEGYGMDYWGQGTTVTVSS
VL: DIQMTQSPSSLSASVGDRVTITCRASENIYSNLAWYQQKPGKAPKLLIYAATNLADGVPSRFSGSGSGTDFTLTISSLQPEDFATYYCQHFWGTPPWTFGGGTKVEIK
notes: as for B2
For B4, the binding result in test [2], in test [3] and in test [1] was “binds” in each case.

B5: hzL4L-11 (antibody, V domains shown)
VH: B4 VH with S30T, V68I, T69S
VL: B4 VL with D56E
Turning to B5, in test [1], the binding result is on record as “binds”.

B6: hzL4L-14 (antibody, V domains shown)
VH: B4 VH
VL: B4 VL with D56E
Turning to B6, the binding result in test [2] and in test [3] was “binds” throughout.

B7: hzL4L-4 (antibody, V domains shown)
VH: B4 VH with S30T, T71S, R72V
VL: B4 VL
Take B7: in test [1], the binding result is listed as “binds”.

B8: hzL4L-3 (antibody, V domains shown)
VH: B4 VH with S30T, V68I, T69S
VL: B4 VL
For the molecule B8, the binding entry in test [1] is reported as “binds”.
